PubChem BioAssay AID1224826 – NIAID, 2016
Assay: 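Regulators of Tlr4 signalling leading to Tnf-alpha expression in macrophages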 (primary screen). System: RAW264.7 G9 macrophages from mouse bearing reporters for p65 (GFP) and the Tnf promoter (mCherry). Knock-down reagent: siRNA pool against mouse genes, 100 nM. Timing: 16 h of LPS stimulation, after 2 days of siRNA transfection. Conditions: bacterial lipopolysaccharide (Salmonella minnesota R595), 10 ng/ml. Measurement: 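Nuclear mCherry signal of the Tnf promoter reporter measured by imaging after background removal, scaled to each plate median and turned into robust z-scores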. Scale: Tnf reporter robust z-score: higher = stronger Tnf promoter reporter signal after LPS; Tnf reporter intensity: higher = stronger Tnf promoter reporter signal. Hit rule: 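a well counts as active at a score of -1.3 or below (Tlr4 knock-down control median) or above 3 (raised signal); controls and wells holding fewer than 50 cells are excluded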. Calls: active = Tnf reporter clearly lowered or raised; inactive = no clear change in Tnf reporter.
This is one part, drawn at random, of about 17,000 deposited reagents. About 1,110 of them (6.6%) were called active. 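Active means lowered or raised reporter signal; replicate intensities are raw and not normalised per plate.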 The numbers tell different reagents against one gene apart.

| gene | reagent no. | Tnf reporter robust z-score | fewer than 50 cells in well | Tnf reporter intensity, replicate 1 | Tnf reporter intensity, replicate 2 | Outcome |
| --- | --- | --- | --- | --- | --- | --- |
| Pik3cd | 1 | -0.05 | enough cells in well | 252 | 180 | inactive |
| Rabggtb | 1 | -0.08 | enough cells in well | 292 | 205 | inactive |
| Gnaq | 1 | -0.1 | enough cells in well | 194 | 310 | inactive |
| Zfp668 | 1 | -1.29 | enough cells in well | 104 | 116 | inactive |
| Hdc | 1 | 0.87 | enough cells in well | 253 | 256 | inactive |
| Trak2 | 1 | 0.62 | enough cells in well | 203 | 205 | inactive |
| Or5p5 | 1 | 0.52 | enough cells in well | 284 | 292 | inactive |
| Ebp | 1 | 1.17 | enough cells in well | 303 | 341 | inactive |
| C4bp | 1 | 0.67 | enough cells in well | 100 | 258 | inactive |
| Clic1 | 1 | -0.08 | enough cells in well | 148 | 188 | inactive |
| Rpl7 | 1 | – | fewer than 50 cells per well; well left out of calls | 49 | 57 | inactive |
| Stxbp3 | 1 | 2.84 | enough cells in well | 209 | 183 | inactive |
| Krt7 | 1 | -0.87 | enough cells in well | 141 | 127 | inactive |
| Tubb5 | 1 | 0.75 | enough cells in well | 261 | 319 | inactive |
| Ubr5 | 1 | -1.24 | enough cells in well | 94.1 | 89.8 | inactive |
| Tff1 | 1 | – | fewer than 50 cells per well; well left out of calls | 69.1 | 63.6 | inactive |
| Slc45a3 | 1 | – | fewer than 50 cells per well; well left out of calls | 111 | 16.9 | inactive |
| Arhgdig | 1 | -0.9 | enough cells in well | 121 | 113 | inactive |
| Tyr | 1 | 0.25 | enough cells in well | 224 | 278 | inactive |
| Xpo5 | 1 | 1.1 | enough cells in well | 189 | 150 | inactive |
| Abi3bp | 1 | 1.98 | enough cells in well | 329 | 257 | inactive |
| Zmiz1 | 1 | 1.32 | enough cells in well | 204 | 239 | inactive |
| Leprot | 1 | -0.44 | enough cells in well | 227 | 139 | inactive |
| Hba-x | 1 | 2.06 | enough cells in well | 362 | 356 | inactive |
| Cetn3 | 1 | -1.41 | enough cells in well | 127 | 111 | active |
| 4930486L24Rik | 1 | – | fewer than 50 cells per well; well left out of calls | 128 | 27.1 | inactive |
| Commd10 | 1 | 0.42 | enough cells in well | 189 | 203 | inactive |
| Mep1a | 1 | 0.66 | enough cells in well | 303 | 266 | inactive |
| Meak7 | 1 | 0.28 | enough cells in well | 157 | 191 | inactive |
| Gabrg3 | 1 | 0.26 | enough cells in well | 282 | 254 | inactive |
| Gabrg3 | 2 | 0.92 | enough cells in well | 266 | 175 | inactive |
| Or13c7b | 1 | -0.07 | enough cells in well | 166 | 125 | inactive |
| Ago3 | 1 | -0.61 | enough cells in well | 155 | 86.8 | inactive |
| Micall2 | 1 | -0.49 | enough cells in well | 98.5 | 177 | inactive |
| Med1 | 1 | -0.65 | enough cells in well | 190 | 151 | inactive |
| Htr3b | 1 | -0.34 | enough cells in well | 202 | 240 | inactive |
| Tmem121b | 1 | -0.71 | enough cells in well | 109 | 156 | inactive |
| Hes5 | 1 | -1.34 | enough cells in well | 144 | 64.5 | active |
| Or5p57 | 1 | – | fewer than 50 cells per well; well left out of calls | 71.4 | 88.9 | inactive |
| Cldn23 | 1 | -0.17 | enough cells in well | 121 | 213 | inactive |
| Or8b9 | 1 | -0.84 | enough cells in well | 80.4 | 71.5 | inactive |
| Cd300a | 1 | 0.03 | enough cells in well | 185 | 154 | inactive |
| Omt2b | 1 | 2.14 | enough cells in well | 281 | 243 | inactive |
| Prim1 | 1 | 0.96 | enough cells in well | 334 | 248 | inactive |
| Rhox2a | 1 | – | fewer than 50 cells per well; well left out of calls | 252 | 131 | inactive |
| Bpifb9a | 1 | -0.71 | enough cells in well | 176 | 73.6 | inactive |
| Dpt | 1 | -1.02 | enough cells in well | 126 | 70.2 | inactive |
| Ykt6 | 1 | 1.11 | enough cells in well | 175 | 99.8 | inactive |
| Pknox2 | 1 | 0.12 | enough cells in well | 139 | 131 | inactive |
| Wnk4 | 1 | -1.02 | enough cells in well | 146 | 89.9 | inactive |
| Gprc5c | 1 | -1.05 | enough cells in well | 118 | 228 | inactive |
| Ppt1 | 1 | 0.67 | enough cells in well | 284 | 251 | inactive |
| Ppt1 | 2 | – | fewer than 50 cells per well; well left out of calls | 125 | 81.8 | inactive |
| Tex16 | 1 | 1.13 | enough cells in well | 146 | 143 | inactive |
| Ammecr1 | 1 | -0.99 | enough cells in well | 67.4 | 164 | inactive |
| Itgbl1 | 1 | -0.58 | enough cells in well | 213 | 106 | inactive |
| Anxa5 | 1 | -0.53 | enough cells in well | 122 | 158 | inactive |
| Dmd | 1 | -0.09 | enough cells in well | 224 | 200 | inactive |

Reformatted: entries from further up
Abi3bp | Tnf reporter robust z-score = 1.98; fewer than 50 cells in well = enough cells in well; Tnf reporter intensity, replicate 1 = 329; Tnf reporter intensity, replicate 2 = 257; Outcome = inactive
Zmiz1 | Tnf reporter robust z-score = 1.32; fewer than 50 cells in well = enough cells in well; Tnf reporter intensity, replicate 1 = 204; Tnf reporter intensity, replicate 2 = 239; Outcome = inactive
Leprot | Tnf reporter robust z-score = -0.44; fewer than 50 cells in well = enough cells in well; Tnf reporter intensity, replicate 1 = 227; Tnf reporter intensity, replicate 2 = 139; Outcome = inactive
Hba-x | Tnf reporter robust z-score = 2.06; fewer than 50 cells in well = enough cells in well; Tnf reporter intensity, replicate 1 = 362; Tnf reporter intensity, replicate 2 = 356; Outcome = inactive
Cetn3 | Tnf reporter robust z-score = -1.41; fewer than 50 cells in well = enough cells in well; Tnf reporter intensity, replicate 1 = 127; Tnf reporter intensity, replicate 2 = 111; Outcome = active
4930486L24Rik | fewer than 50 cells in well = fewer than 50 cells per well; well left out of calls; Tnf reporter intensity, replicate 1 = 128; Tnf reporter intensity, replicate 2 = 27.1; Outcome = inactive
